Results published in the supplement of paper PMC12823440, “Inhibitors supercharge kinase turnover through native proteolytic circuits” (Nature, 2025).
Where a name gives a salt, the structure may show the parent alone. Some of the results follow. Hit calls seldom repeat between salt and free forms of one compound.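 Kinases were expressed as nanoluciferase fusions in K562 cells and luminescence was read every 4 h between 2 and 18 h as percent of control, DMSO set to 100% and a positive control to 0%. A time point counts as decreased when the signal drops significantly (2 sigma). The hit call is the authors' own, does not follow from the count of time points alone, and its rule is not shown.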

By UniProt entry, the sequences of proteins in these tests, tags left out. Where a name states a change or a piece, a line headed by the entry shows the natural chain unless it says otherwise.
UniProt P36888, whole entry: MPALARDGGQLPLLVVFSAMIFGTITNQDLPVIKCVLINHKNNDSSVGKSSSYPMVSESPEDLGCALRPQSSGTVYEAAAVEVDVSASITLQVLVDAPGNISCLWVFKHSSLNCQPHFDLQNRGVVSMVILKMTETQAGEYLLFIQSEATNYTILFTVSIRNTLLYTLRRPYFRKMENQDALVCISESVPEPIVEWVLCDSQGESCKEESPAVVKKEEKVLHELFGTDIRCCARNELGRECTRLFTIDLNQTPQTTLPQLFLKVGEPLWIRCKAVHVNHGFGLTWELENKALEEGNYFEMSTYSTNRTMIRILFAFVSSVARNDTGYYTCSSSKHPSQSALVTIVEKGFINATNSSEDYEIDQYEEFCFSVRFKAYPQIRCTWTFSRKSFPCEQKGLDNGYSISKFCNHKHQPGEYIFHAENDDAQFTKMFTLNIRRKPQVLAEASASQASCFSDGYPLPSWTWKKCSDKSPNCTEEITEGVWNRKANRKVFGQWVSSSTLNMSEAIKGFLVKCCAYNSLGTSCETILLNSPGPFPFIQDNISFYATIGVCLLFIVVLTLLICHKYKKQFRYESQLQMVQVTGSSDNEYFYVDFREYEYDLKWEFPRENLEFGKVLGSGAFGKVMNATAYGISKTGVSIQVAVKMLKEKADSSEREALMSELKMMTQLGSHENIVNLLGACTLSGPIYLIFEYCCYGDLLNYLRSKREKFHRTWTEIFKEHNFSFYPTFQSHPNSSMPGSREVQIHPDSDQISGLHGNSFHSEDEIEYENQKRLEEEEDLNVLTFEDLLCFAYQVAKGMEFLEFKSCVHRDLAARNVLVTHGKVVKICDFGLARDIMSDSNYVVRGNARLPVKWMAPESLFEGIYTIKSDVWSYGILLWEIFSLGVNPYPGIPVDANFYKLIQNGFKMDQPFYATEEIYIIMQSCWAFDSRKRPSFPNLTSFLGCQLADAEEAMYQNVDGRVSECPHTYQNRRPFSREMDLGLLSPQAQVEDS
UniProt P49840: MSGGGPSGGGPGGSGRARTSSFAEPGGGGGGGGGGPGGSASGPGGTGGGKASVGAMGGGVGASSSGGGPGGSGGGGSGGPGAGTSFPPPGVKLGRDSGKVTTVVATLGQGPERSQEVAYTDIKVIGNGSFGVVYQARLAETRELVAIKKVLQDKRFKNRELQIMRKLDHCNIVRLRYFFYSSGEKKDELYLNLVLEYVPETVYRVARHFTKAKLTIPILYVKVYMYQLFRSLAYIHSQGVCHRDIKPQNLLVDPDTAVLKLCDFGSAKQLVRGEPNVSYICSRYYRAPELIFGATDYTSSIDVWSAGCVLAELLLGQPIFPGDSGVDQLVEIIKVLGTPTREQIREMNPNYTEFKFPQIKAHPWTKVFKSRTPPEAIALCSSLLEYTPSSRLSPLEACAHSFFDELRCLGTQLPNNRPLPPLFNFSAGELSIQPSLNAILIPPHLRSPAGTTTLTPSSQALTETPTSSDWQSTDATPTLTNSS
UniProt Q9Y616: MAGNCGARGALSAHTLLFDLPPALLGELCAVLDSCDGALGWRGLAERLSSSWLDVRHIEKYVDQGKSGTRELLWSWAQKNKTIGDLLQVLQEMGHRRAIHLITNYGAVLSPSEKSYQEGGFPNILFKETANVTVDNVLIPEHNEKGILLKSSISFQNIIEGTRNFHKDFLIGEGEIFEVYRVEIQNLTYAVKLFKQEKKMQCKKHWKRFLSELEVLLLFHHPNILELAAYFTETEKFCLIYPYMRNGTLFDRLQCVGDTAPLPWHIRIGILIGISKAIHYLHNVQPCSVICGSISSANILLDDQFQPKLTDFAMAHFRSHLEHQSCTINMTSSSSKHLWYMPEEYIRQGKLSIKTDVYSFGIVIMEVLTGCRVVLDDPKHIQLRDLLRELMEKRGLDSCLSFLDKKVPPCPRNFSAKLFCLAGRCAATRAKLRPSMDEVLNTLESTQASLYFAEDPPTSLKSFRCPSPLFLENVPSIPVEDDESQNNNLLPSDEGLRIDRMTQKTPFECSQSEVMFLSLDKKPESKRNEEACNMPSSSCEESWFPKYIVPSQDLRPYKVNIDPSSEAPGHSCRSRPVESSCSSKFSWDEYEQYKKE
UniProt P06239: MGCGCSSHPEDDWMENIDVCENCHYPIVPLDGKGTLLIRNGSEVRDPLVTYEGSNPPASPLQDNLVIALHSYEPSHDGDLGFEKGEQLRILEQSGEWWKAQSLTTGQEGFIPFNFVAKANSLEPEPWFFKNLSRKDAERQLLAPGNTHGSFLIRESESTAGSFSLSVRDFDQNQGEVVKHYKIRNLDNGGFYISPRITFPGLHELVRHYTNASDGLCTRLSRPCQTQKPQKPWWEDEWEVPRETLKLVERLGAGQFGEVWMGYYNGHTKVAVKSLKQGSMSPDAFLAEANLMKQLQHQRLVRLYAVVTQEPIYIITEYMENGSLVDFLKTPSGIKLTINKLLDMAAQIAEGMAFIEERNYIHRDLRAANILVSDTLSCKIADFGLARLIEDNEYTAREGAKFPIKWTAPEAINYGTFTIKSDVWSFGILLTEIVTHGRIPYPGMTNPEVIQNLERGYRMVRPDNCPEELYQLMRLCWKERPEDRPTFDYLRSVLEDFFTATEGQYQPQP
UniProt P53667: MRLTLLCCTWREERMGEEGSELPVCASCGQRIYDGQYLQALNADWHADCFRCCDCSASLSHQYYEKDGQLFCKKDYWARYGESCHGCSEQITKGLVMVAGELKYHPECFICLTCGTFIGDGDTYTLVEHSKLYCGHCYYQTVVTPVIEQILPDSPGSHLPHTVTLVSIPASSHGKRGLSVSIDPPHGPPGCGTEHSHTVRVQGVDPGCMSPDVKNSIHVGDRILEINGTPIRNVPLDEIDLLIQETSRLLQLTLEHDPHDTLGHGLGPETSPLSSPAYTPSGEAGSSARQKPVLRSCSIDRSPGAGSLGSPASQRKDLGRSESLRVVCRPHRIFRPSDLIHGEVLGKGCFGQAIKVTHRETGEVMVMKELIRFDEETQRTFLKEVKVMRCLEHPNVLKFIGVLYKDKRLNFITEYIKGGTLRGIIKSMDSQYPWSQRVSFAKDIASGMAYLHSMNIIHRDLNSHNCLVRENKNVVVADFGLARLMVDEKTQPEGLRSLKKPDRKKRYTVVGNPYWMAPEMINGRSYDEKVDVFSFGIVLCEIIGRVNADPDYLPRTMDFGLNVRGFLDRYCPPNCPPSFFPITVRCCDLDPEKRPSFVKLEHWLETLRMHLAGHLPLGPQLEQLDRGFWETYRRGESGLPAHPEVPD
UniProt P53671: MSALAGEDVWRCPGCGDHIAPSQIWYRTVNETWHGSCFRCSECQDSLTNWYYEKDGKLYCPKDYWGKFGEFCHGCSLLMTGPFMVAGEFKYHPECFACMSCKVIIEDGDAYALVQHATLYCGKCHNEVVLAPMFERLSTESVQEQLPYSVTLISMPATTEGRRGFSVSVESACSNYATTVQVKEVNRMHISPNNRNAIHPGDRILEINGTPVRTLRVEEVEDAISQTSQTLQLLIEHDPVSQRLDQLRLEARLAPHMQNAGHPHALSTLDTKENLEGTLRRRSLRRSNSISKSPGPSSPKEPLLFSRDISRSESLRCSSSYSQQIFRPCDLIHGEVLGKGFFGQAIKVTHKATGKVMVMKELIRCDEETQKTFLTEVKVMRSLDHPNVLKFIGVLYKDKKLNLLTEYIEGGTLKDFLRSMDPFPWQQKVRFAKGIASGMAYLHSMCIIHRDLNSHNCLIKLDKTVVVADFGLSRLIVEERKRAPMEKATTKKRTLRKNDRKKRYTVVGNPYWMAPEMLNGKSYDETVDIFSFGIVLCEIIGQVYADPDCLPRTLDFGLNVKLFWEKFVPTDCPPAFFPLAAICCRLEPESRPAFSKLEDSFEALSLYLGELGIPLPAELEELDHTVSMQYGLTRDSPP
UniProt Q8IWU2: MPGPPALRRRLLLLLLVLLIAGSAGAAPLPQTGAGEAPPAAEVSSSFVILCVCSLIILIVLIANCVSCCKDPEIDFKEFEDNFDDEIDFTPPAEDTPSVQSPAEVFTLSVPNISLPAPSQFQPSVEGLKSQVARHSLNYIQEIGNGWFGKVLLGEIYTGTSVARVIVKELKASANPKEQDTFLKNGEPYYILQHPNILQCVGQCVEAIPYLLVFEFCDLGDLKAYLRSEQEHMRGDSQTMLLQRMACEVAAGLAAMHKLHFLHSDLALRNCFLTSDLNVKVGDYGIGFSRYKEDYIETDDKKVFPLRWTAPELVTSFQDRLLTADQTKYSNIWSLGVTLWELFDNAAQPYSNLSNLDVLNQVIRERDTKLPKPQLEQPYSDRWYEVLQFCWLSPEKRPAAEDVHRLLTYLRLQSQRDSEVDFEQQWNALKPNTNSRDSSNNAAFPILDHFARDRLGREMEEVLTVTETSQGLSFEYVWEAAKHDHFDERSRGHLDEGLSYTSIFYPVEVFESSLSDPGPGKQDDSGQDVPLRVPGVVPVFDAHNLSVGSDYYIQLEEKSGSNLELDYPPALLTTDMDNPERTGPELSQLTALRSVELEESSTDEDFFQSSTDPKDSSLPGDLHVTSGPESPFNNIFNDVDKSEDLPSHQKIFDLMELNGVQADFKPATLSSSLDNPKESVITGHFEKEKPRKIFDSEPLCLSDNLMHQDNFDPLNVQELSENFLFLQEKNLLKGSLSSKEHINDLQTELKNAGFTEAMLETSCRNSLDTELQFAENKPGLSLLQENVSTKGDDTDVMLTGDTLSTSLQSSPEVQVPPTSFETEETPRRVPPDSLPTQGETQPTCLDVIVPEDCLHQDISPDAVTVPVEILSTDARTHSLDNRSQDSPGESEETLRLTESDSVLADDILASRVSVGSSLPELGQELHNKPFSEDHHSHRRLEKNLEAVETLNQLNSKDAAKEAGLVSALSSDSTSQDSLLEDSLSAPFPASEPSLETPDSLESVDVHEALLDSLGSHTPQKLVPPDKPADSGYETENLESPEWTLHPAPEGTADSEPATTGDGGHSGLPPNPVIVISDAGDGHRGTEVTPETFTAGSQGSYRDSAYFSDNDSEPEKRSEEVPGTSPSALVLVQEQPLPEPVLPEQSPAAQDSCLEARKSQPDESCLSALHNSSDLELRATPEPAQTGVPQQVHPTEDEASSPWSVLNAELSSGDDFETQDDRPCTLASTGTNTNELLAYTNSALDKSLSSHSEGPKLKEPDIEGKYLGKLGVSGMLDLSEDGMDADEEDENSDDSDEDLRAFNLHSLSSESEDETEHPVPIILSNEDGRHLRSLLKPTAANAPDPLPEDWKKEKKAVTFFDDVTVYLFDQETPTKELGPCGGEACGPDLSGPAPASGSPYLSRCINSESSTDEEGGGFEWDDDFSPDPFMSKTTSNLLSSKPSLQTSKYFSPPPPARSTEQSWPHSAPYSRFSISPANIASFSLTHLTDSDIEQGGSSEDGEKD
UniProt P28482, whole entry: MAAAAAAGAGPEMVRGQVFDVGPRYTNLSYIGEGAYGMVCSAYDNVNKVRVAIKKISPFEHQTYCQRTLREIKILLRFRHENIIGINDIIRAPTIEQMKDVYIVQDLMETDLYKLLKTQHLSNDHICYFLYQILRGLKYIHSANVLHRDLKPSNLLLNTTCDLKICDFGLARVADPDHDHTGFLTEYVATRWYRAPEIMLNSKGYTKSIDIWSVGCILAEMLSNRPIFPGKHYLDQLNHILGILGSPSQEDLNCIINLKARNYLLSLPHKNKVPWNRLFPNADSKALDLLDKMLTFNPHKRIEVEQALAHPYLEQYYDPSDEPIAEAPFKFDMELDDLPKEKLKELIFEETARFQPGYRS
UniProt P49137, whole entry, looked up: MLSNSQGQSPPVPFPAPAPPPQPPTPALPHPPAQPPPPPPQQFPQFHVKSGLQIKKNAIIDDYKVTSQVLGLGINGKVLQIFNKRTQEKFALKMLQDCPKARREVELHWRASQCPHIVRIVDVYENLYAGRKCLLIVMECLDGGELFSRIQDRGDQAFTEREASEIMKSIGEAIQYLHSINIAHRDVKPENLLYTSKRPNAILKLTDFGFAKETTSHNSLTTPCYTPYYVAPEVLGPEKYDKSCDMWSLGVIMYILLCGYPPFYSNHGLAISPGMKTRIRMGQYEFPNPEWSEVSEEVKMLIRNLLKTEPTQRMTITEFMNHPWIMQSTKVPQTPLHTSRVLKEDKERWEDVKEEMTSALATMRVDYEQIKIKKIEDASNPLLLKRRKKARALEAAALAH
UniProt Q9BUB5: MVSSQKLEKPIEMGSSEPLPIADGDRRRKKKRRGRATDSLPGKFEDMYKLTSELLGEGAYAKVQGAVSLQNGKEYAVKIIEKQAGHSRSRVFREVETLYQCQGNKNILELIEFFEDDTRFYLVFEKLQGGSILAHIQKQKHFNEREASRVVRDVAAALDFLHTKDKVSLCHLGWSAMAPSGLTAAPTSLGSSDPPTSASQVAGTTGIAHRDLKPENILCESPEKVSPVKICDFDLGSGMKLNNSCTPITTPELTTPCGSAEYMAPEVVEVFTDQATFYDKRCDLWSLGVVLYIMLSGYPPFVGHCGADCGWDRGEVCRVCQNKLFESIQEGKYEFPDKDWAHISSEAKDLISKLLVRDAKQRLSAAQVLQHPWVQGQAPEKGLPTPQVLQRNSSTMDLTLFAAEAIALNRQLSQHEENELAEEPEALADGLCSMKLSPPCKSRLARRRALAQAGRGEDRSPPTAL

Legend:
Assay in all cases: number of time points (of 5) at which kinase-Nluc abundance scored as decreased, DMSO-normalised (count); higher = more persistent destabilization
Conditions in all cases: K562; 2-18 h
FLT3 = FLT3 (UniProt P36888)
FYN = FYN (UniProt P06241)
GSK3A = GSK3A (UniProt P49840)
HER2 = HER2 (UniProt P04626)
INSRR = INSRR (UniProt P14616)
IRAK3 = IRAK3 (UniProt Q9Y616)
JAK1 = JAK1 (UniProt P23458)
LCK = LCK (UniProt P06239)
LIMK1 = LIMK1 (UniProt P53667)
LIMK2 = LIMK2 (UniProt P53671)
LMTK2 = LMTK2 (UniProt Q8IWU2)
LYN = LYN (UniProt P07948)
MAP2K1 = MAP2K1 (UniProt Q02750)
MAP2K2 = MAP2K2 (UniProt P36507)
MAP4K2 = MAP4K2 (UniProt Q12851)
MAPK1 = MAPK1 (UniProt P28482)
MAPK4 = MAPK4 (UniProt P31152)
MAPKAPK2 = MAPKAPK2 (UniProt P49137)
MKNK1 = MKNK1 (UniProt Q9BUB5)

Measured: number of time points

COc1cc2nc(-c3cc(F)ccc3O)nc(N[C@@H]3CNC[C@H]3C(C)(C)O)c2cc1OC (2.5 µM)
0: all assays above

O=C1NC(=O)C(Cc2c[nH]c3c(Cl)cccc23)N1 (stereo not drawn) [Necroptosis-IN-1] (10 µM)
0: all assays above

CCC(F)(F)c1cc(N2CCC(S(C)(=O)=O)CC2)nc2sc(C(N)=O)c(N)c12 (10 µM)
0: all assays above

O=C(COc1ccc(Cl)cc1)NC1CCC(NC(=O)COc2ccc(Cl)cc2)CC1 (stereo not drawn) [ISRIB (trans-isomer)] (10 µM)
0: all assays above

O=C1C=CC2=C3c4cc(O)c(O)cc4CC3(O)COC2=C1O (stereo not drawn) [Hematein] (10 µM)
0: all assays above

COc1ccc(CCNCc2ccc(OCc3ccc(Cl)nc3)c(OC)c2)cc1OC [SBE13 (Hydrochloride)] (10 µM)
0: all assays above

CC(ONC(=O)c1cc(C(F)(F)F)cc(C(F)(F)F)c1)C(=O)Nc1ccc(Cl)cc1 (stereo not drawn) (2.5 µM)
5: HER2
0: all other assays above

CCC[C@H](C)Oc1nc(N)c2[nH]c(=O)n(CCCCCN3CCCCC3)c2n1 (10 µM)
0: all assays above

O=C(Nc1ccc(Cl)cc1)C1CN(C(=O)c2cccc(-c3ccco3)c2)CC(F)(F)C1 (stereo not drawn) (2.5 µM)
1: FLT3
0: all other assays above

Cc1ncsc1-c1ccc(CNC(=O)[C@@H]2C[C@@H](O)CN2C(=O)[C@@H](NC(=O)COCCOc2ccc(-c3cc(Nc4ccc(OC(F)(F)F)cc4)ncn3)cc2)C(C)(C)C)cc1 (2.5 µM)
1: FYN | HER2 | JAK1 | LMTK2 | MAPK4
4: FLT3
2: INSRR | IRAK3 | LIMK2 | MKNK1
0: all other assays above

Two compounds drawn at random from those above, as already listed:
CC(ONC(=O)c1cc(C(F)(F)F)cc(C(F)(F)F)c1)C(=O)Nc1ccc(Cl)cc1 (stereo not drawn) (2.5 µM)
5: HER2
0: all other assays above

O=C(Nc1ccc(Cl)cc1)C1CN(C(=O)c2cccc(-c3ccco3)c2)CC(F)(F)C1 (stereo not drawn) (2.5 µM)
1: FLT3
0: all other assays above

Later entries:

O=C(Nc1ccccc1C(=O)NC1CCCCNC1=O)c1cc2ccccc2s1 (stereo not drawn) (10 µM)
0: all assays above

Cc1cnc(Cl)nc1-c1ccc(N(Cc2ccc(CNC(=O)C(F)F)cc2)C(=O)c2ccc(O)cc2O)cc1 (10 µM)
0: all assays above
